The supplement of paper PMC12067093, “Discovery and optimisation of a covalent ligand for TRIM25 and its application to targeted protein ubiquitination” (Chemical Science, 2025)
This is one part of the list.

Amino acid sequences for entries named in this document (tags omitted). A change or cut given only in a name is not applied to a line headed by its entry.
UniProt P42166: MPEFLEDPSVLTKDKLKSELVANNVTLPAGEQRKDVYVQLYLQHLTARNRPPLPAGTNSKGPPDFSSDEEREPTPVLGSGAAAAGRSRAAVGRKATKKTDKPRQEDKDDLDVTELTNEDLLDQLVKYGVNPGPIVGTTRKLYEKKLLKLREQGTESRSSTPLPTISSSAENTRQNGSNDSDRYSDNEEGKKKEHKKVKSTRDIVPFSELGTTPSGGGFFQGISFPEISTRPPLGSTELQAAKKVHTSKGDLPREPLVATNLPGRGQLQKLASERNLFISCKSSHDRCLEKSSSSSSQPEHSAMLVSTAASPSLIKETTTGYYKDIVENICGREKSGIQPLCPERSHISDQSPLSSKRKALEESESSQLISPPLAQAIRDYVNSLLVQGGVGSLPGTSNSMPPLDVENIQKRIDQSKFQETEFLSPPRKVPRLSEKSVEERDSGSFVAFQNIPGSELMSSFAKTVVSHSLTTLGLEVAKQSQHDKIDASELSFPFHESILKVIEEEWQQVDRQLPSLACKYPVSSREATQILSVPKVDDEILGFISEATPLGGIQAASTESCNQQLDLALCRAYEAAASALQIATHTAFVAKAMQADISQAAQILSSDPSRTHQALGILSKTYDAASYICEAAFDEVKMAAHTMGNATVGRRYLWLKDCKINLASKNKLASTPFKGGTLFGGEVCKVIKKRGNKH
UniProt Q9H496: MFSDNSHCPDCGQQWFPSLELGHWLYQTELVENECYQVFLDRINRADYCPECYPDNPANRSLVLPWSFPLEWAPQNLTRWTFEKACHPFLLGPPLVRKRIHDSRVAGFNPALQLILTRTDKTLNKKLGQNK
UniProt Q9Y490: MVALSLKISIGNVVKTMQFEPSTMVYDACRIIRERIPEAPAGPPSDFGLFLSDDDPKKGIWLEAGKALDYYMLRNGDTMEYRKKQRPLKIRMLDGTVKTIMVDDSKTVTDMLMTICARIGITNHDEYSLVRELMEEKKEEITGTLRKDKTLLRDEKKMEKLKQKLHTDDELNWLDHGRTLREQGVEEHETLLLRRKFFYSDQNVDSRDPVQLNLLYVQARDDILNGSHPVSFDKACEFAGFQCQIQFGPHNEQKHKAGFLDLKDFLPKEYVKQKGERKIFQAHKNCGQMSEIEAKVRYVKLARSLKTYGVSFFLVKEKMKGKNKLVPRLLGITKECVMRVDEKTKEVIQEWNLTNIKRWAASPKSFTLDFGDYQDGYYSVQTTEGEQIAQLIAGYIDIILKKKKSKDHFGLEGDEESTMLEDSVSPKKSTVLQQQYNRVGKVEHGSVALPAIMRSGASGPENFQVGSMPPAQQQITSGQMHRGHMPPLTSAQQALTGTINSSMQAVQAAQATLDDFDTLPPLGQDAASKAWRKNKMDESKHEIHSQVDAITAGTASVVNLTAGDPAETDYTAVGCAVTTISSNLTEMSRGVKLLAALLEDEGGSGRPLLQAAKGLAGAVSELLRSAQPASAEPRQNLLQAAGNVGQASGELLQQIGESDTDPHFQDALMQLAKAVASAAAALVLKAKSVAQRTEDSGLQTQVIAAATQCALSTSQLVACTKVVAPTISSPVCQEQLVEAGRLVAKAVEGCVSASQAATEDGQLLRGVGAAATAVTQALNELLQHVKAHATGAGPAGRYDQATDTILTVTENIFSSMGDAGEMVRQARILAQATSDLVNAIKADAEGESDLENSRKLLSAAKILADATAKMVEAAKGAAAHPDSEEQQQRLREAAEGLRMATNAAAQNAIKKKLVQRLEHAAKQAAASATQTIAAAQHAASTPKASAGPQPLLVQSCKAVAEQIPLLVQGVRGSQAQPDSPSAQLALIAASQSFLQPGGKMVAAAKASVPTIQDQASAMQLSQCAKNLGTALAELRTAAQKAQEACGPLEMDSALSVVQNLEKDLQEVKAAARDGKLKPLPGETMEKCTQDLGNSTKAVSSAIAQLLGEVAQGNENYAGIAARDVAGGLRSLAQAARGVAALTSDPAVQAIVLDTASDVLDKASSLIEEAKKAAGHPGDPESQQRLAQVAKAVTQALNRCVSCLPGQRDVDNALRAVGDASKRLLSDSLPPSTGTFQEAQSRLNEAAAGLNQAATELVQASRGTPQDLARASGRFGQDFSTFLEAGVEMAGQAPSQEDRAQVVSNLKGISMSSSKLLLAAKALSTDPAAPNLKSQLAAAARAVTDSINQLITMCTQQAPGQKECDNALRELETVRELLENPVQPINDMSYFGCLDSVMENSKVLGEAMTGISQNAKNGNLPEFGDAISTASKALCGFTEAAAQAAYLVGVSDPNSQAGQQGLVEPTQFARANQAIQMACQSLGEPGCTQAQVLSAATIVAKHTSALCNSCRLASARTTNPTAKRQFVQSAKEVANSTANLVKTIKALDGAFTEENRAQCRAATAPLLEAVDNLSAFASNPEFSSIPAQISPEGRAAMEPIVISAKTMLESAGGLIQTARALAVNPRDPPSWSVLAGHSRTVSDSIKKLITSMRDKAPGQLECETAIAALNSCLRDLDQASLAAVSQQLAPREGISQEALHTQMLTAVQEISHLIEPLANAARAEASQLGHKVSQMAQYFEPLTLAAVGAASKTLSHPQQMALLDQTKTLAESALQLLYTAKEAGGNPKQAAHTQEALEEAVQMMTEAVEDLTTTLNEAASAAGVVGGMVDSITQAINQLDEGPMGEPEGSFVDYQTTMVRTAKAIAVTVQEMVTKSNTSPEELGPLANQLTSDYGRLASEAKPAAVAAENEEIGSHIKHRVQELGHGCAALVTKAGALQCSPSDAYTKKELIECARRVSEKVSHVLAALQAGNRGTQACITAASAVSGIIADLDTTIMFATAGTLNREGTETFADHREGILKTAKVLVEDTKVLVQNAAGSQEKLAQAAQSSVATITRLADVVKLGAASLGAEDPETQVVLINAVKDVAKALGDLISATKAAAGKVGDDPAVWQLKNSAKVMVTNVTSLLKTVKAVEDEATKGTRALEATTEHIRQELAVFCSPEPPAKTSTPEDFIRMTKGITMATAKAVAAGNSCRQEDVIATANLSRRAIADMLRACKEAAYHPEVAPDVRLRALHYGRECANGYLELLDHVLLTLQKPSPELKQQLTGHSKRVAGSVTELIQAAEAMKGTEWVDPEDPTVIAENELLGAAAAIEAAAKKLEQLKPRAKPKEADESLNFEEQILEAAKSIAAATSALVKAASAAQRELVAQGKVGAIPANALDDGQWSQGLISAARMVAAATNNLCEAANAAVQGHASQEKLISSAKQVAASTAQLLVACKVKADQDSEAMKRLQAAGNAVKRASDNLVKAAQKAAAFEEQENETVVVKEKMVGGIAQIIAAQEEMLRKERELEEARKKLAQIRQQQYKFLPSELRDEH
UniProt Q9Y3A6: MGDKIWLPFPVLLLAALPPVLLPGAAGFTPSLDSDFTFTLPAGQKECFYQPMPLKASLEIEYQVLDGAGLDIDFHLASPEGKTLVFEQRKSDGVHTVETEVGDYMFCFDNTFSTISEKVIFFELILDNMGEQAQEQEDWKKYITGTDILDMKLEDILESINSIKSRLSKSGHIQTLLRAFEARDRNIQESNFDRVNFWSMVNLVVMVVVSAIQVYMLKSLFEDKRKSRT
UniProt P11388: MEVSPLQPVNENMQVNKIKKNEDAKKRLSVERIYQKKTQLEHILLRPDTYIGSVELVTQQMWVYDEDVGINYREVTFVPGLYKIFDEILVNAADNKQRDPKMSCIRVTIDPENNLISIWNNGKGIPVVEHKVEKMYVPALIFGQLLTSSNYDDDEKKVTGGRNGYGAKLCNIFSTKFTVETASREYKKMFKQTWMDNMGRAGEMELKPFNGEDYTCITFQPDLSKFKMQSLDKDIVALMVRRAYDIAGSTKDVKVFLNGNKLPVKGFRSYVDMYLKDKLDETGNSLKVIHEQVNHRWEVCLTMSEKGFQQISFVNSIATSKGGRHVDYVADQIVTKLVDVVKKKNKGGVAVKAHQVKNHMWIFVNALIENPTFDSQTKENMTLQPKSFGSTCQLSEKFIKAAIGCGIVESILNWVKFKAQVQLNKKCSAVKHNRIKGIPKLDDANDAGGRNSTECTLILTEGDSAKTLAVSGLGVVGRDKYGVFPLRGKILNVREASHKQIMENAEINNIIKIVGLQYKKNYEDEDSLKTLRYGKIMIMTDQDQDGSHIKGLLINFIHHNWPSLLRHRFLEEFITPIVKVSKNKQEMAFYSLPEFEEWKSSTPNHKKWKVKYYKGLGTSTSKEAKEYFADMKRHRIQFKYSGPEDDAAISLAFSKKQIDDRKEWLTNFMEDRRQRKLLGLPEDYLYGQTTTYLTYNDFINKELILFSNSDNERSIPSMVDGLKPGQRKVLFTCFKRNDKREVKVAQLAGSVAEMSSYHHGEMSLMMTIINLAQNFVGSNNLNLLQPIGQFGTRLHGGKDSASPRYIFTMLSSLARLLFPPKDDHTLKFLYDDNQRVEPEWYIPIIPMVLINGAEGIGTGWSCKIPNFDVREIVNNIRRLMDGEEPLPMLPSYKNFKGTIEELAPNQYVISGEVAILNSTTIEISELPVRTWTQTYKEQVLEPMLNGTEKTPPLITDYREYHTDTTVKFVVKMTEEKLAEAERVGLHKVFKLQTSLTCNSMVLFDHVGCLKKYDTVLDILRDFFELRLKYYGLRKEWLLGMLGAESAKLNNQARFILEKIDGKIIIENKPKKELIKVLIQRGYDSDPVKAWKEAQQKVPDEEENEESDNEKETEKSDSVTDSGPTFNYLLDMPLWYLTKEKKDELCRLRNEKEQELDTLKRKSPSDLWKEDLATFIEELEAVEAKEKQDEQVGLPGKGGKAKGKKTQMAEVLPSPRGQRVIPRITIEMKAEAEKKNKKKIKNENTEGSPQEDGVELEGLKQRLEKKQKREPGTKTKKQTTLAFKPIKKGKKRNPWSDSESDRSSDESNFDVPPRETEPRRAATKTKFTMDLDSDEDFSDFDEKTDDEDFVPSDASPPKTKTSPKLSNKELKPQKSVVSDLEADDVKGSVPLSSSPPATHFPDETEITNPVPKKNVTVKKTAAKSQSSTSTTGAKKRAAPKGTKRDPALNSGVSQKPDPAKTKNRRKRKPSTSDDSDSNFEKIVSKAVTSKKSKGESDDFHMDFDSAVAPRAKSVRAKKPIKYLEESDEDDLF
UniProt Q9NQ34: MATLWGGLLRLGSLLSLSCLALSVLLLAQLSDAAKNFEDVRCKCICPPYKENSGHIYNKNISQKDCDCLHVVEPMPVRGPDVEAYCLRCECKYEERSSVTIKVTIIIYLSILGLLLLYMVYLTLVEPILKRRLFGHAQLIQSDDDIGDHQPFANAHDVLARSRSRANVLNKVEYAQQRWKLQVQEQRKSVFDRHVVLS
UniProt O94826, whole entry, looked up: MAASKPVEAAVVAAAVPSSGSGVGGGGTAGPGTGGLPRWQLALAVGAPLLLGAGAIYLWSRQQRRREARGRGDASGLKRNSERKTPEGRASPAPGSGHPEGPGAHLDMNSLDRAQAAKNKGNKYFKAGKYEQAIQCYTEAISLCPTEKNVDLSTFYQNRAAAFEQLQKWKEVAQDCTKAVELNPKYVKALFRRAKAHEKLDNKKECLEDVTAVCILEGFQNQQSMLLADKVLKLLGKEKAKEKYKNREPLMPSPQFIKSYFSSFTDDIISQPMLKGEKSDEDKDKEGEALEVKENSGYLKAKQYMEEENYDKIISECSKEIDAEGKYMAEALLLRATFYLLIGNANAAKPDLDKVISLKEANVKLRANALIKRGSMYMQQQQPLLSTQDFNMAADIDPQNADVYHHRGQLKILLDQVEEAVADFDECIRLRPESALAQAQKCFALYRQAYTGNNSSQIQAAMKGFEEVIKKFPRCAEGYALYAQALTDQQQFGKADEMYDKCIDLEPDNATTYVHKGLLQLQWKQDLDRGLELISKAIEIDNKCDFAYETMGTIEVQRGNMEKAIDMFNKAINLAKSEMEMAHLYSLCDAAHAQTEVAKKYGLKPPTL
UniProt Q96SK2: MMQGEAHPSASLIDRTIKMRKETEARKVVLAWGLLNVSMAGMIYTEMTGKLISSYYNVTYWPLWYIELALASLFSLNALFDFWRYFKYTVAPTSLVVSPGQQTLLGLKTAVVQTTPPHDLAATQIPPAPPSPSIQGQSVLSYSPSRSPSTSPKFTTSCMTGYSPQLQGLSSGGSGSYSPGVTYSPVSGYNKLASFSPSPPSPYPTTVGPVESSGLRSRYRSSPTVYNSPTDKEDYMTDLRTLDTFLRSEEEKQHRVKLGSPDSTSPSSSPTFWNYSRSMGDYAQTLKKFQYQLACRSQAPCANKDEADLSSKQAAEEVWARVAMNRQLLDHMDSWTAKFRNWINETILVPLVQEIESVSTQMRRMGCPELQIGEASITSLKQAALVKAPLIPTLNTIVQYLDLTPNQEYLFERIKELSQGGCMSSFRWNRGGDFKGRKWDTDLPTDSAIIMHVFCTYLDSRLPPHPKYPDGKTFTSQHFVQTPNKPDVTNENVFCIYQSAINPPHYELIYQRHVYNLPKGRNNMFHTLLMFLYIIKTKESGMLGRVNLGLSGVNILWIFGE

Each target was assayed with Cc1cc(ccc1-c1ccccc1)C(=O)N1CCCN(CC1)C(=O)CCl [compound 10] (assay: probe-labelled cysteine peptide fold change vs DMSO (competition) (log2 fold change); higher = less target engagement (more negative = stronger competition)). Conditions: 10 µM; THP-1; incubation time: 4 h.
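Further: competitive profiling in live THP-1 cells: cysteine peptides tagged with an iodoacetamide desthiobiotin (IA-DTB) probe, intensity after compound treatment relative to DMSO-treated cells.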

| Target | probe-labelled cysteine peptide fold change |
| --- | --- |
| TP53BP1_Q12888_1040_TMSVLSCICEAR (UniProt Q12888) | -0.23 |
| TMPO_P42166_341_SGIQPLCPER (UniProt P42166) | -0.27 |
| TOR4A_Q9NXH8_62_LLQPGGGPDVGTGAPRPGCSPR (UniProt Q9NXH8) | -0.0668 |
| TOX4_O94842_596_DWDNEYCSNECVVK (UniProt O94842) | -0.075 |
| TMED3_Q9Y3Q3_144_VTALTQMESACVTIHEALK (UniProt Q9Y3Q3) | 0.208 |
| TNRC18_O15417_726_ADEDCVDDR (UniProt O15417) | -0.00627 |
| TOR1AIP2_Q9H496_86_ACHPFLLGPPLVR (UniProt Q9H496) | 0.255 |
| TLN1_Q9Y490_732_VVAPTISSPVCQEQLVEAGR (UniProt Q9Y490) | 0.0719 |
| TMED5_Q9Y3A6_47_ECFYQPMPLK (UniProt Q9Y3A6) | -0.362 |
| TNS3_Q68CZ2_1381_HYPVNSVIFCALDPQDR (UniProt Q68CZ2) | 0.00158 |
| TONSL_Q96HA7_66_ADDPLGCAVAHR (UniProt Q96HA7) | -0.00888 |
| TOP2A_P11388_392_SFGSTCQLSEK (UniProt P11388) | -0.0489 |
| TMEM9B_Q9NQ34_66+68_DCDCLHVVEPMPVR (UniProt Q9NQ34) | -0.0137 |
| TP53I3_Q53FA7_76_QGQYDPPPGASNILGLEASGHVAELGPGCQGHWK (UniProt Q53FA7) | 0.0859 |
| TOP1_P11387_504+505_EEGETADTVGCCSLR (UniProt P11387) | -0.0145 |
| TMEM214_Q6NUQ4_392_ELLSSLTECLTVDPLSASVWR (UniProt Q6NUQ4) | 0.182 |
| TNFAIP8L3_Q5GJ75_272_INHVFNHFADVEFLSTLYSLDGDCRPNLK (UniProt Q5GJ75) | 0.0517 |
| TOMM70_O94826_427_ILLDQVEEAVADFDECIR (UniProt O94826) | -0.289 |

| Target | probe-labelled cysteine peptide fold change |
| --- | --- |
| TNPO3_Q9Y5L0_204_CLGSWFNLGVLDSNFMANNK (UniProt Q9Y5L0) | -0.18 |
| TOR1AIP1_Q5JTV8_424_CLSEQIADAYSSFR (UniProt Q5JTV8) | 0.193 |
| TMEM94_Q12767_674_LSCVTK (UniProt Q12767) | -0.112 |
| TOP2A_P11388_733_VLFTCFK (UniProt P11388) | 0.102 |
| TLN1_Q9Y490_243_ACEFAGFQCQIQFGPHNEQK (UniProt Q9Y490) | 0.0189 |
| TOP2A_P11388_300_WEVCLTMSEK (UniProt P11388) | 0.203 |
| TM9SF4_Q92544_100+104_KCEVLCSQSNKPVTLTVEQSR (UniProt Q92544) | -0.17 |
| TOPORS_Q9NS56_49_HRPSFLGCR (UniProt Q9NS56) | -0.298 |
| TOR2A_Q5JU69_271_HCVLNELAQLGLEPR (UniProt Q5JU69) | 0.238 |
| TPP1_O14773_111+122_CHSVITQDFLTCWLSIR (UniProt O14773) | -0.17 |
| TOMM70_O94826_136_YEQAIQCYTEAISLCPTEK (UniProt O94826) | 0.253 |
| TMEM120A_Q9BXJ8_47_LQNNCTSSITR (UniProt Q9BXJ8) | -0.176 |
| TOPBP1_Q92547_430_WLLECFSK (UniProt Q92547) | 0.281 |
| TOMM70_O94826_588_SEMEMAHLYSLCDAAHAQTEVAK (UniProt O94826) | -0.0399 |
| TOP2B_Q02880_271_AYDLAGSCR (UniProt Q02880) | 0.106 |
| TOP2A_P11388_170_LCNIFSTK (UniProt P11388) | -0.173 |
| TMEM209_Q96SK2_295_KFQYQLACR (UniProt Q96SK2) | -0.269 |

Fetched one by one from the list above, 2 records:

| Target | probe-labelled cysteine peptide fold change |
| --- | --- |
| TMEM209_Q96SK2_295_KFQYQLACR (UniProt Q96SK2) | -0.269 |
| TOP2A_P11388_392_SFGSTCQLSEK (UniProt P11388) | -0.0489 |
